Measurements: PubChem BioAssay AID1487 (National Center for Advancing Translational Sciences (NCATS), 2009)
This is one part of the list. These are further read-outs of the screen, such as a control signal, another cell line or another target. No call is given for them. The list favours compounds with an active or inconclusive main result. The note in brackets gives the kind of curve behind each potency; many fits are weak.

Test: qHTS Assay for Modulators of Lamin A Splicing
Details: HeLa LMNA splicing GFP/RFP minigene ratio, 48 h
Procedure, shortened: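 S3 HeLa stable clones carrying a lamin A-EGFP splicing minigene plus DsRed2 were seeded at 600 cells/well in Opti-MEM with 2% FBS, pin-dosed and incubated 48 h at 37°C. Acumen cytometry (488 nm) gave the GFP/RFP total-intensity ratio.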

[1] = measured here: GFP splicing reporter channel
[2] = measured here: RFP viability control channel

| SMILES | AC50 [1] | AC50 [2] |
| --- | --- | --- |
| COc1cc2c(cc1OC)-c1cc(=Nc3c(C)cc(C)cc3C)n(C)c(=O)n1CC2 | 15.8 µM [falling, single point] | 15.8 µM [falling, single point] |
| Fc1cccc(CN2CCN(Cc3nc(CCc4ccccc4)no3)CC2)c1 | 15.8 µM [falling, single point] | – |
| CCc1nc(C)cn1S(=O)(=O)c1cc(OC)c(C)cc1C | – | 17.8 µM [rising, single point] |
| CCc1cc(C(=O)NNC(=S)NCc2ccccc2)cs1 | 12.6 µM [rising, partial curve, poor fit] | 17.8 µM [rising, single point] |
| COc1ccc(N2CCN(C(c3ccccc3)c3nnnn3Cc3ccc(F)cc3)CC2)cc1 (configuration not stated) | – | 15.8 µM [rising, single point] |
| COC(=O)CCC(=O)Oc1ccc(OC(=O)CCC(=O)OC)cc1 | 12.6 µM [rising, partial curve, poor fit] | 20 µM [rising, single point] |
| C/C(=N\NS(=O)(=O)c1ccccc1)c1cc(Cl)cc(Cl)c1O | 35.5 µM [falling, single point] | 35.5 µM [falling, partial curve, poor fit] |
| Fc1ccc(C(OCCCc2cnc[nH]2)c2ccc(F)cc2)cc1 | 11.2 µM [falling, partial curve, poor fit] | – |
| CCCCN(C)CC(O)Cn1cc(/C=C/C(=O)c2cccs2)c2ccccc21 (configuration not stated) | 1.26 µM [rising, single point] | 11.2 µM [rising, partial curve] |
| Cc1[nH]c2ccccc2c1SCC(=O)N1CCN(c2ccccc2)CC1 | – | 7.08 µM [rising, full curve] |
| O=C(Nc1ccccc1)c1cccc(S(=O)(=O)Nc2ccccn2)c1 | 12.6 µM [rising, partial curve] | 35.5 µM [rising, single point] |
| C/C(Cn1nnc([N+](=O)[O-])n1)=N\NC(=O)c1ccccc1Cl | 12.6 µM [falling, partial curve, poor fit] | – |
| O=C(c1ccncc1)c1ccc(N2CCN(C3CC(=O)N(Cc4ccccc4)C3=O)CC2)cc1 (configuration not stated) | – | 14.1 µM [rising, single point] |
| CCNC(=O)N1CCN(CCCC(c2ccc(F)cc2)c2ccc(F)cc2)CC1 | – | 0.000891 µM [falling, full curve, poor fit] |
| NC(=O)c1ccc(-c2ccc(Br)cc2)o1 | 3.55 µM [falling, full curve, poor fit] | 3.98 µM [falling, full curve] |
| CCOC(=O)N1CCC(Nc2ccc(N3C(=O)C4CCCCC4C3=O)cc2[N+](=O)[O-])CC1 (configuration not stated) | – | 0.501 µM [rising, full curve, poor fit] |
| O=C1c2ccccc2C(=O)N1CCCc1c[nH]c2ccc(Cl)cc12 | – | 1.41 µM [rising, partial curve] |
| O=C(N/C(=C\c1ccccc1)C(=O)N1CCCCCC1)c1ccccc1 | 0.0112 µM [rising, full curve, poor fit] | – |

| SMILES | AC50 [1] | AC50 [2] |
| --- | --- | --- |
| Cc1cc(C)cc(-n2nnnc2SCC(=O)Nc2cccc(NC(=O)c3ccco3)c2)c1 | – | 14.1 µM [rising, single point] |
| Cc1ccc(C)c(NC(=O)Cn2cnc3c(oc4ccccc43)c2=O)c1 | 8.91 µM [rising, partial curve, poor fit] | – |
| COc1ccc(CCNC(=O)Cn2cc(C(F)(F)F)cc(Cl)c2=O)cc1 | 0.0501 µM [rising, full curve, poor fit] | – |
| CCc1ccc(C2=CC(c3cccc(C)c3)n3c(nc4ccccc43)N2)cc1 (configuration not stated) | 7.08 µM [rising, partial curve] | 22.4 µM [rising, single point] |
| Cc1ccc(/C=C/C(=O)N2CCN(c3ccc(F)cc3)CC2)o1 | 12.6 µM [rising, partial curve] | 14.1 µM [rising, partial curve] |
| CC(C)(C)c1ccc(-c2noc(CCC(=O)NCC3CCCO3)n2)cc1 (configuration not stated) | 12.6 µM [rising, single point] | 22.4 µM [rising, single point] |
| O=[N+]([O-])c1c(NCCO)cc(N2CCN(Cc3ccc4c(c3)OCO4)CC2)c2nonc12 | – | 28.2 µM [rising, single point] |
| COc1cccc(/C=C/C(=O)N2CCN(c3n[nH]c(=O)[nH]c3=O)CC2)c1OC | – | 14.1 µM [rising, partial curve, poor fit] |
| NC(=O)C1CCN(C(=O)N2c3ccccc3Sc3ccccc32)CC1 | – | 35.5 µM [rising, single point] |
| CCc1ccc2oc(C(=O)NCC(c3ccc(Cl)cc3)N3CCOCC3)c(C)c2c1 (configuration not stated) | – | 12.6 µM [rising, single point] |
| CCOC(=O)c1c(C)oc2nc(C)nc(Nc3cc(C)cc(C)c3)c12 | 0.0398 µM [falling, full curve] | – |
| COc1ccc2cc(C(=O)C3CCCN(C(=O)/C=C/c4ccccn4)C3)ccc2c1 (configuration not stated) | – | 0.562 µM [falling, full curve, poor fit] |
| O=C1CCC(c2ccc(-n3ccnc3)cc2)=NN1 | 0.708 µM [rising, full curve, poor fit] | – |
| Cc1cccc(Nc2nc(N)nc(CN3CCN(Cc4ccc5c(c4)OCO5)CC3)n2)c1 | 17.8 µM [rising, partial curve, poor fit] | 12.6 µM [rising, single point] |
| COCCn1c(=NC(=O)/C=C/c2ccccc2)sc2cc(NC(C)=O)ccc21 | – | 0.00447 µM [rising, full curve, poor fit] |
| S=C(NCc1ccco1)N1CCN(c2ccccn2)CC1 | – | 0.0112 µM [falling, full curve, poor fit] |
| Cc1ccc(-c2nc(N)sc2-c2ccc(C)cc2)cc1 | 22.4 µM [falling, partial curve, poor fit] | 35.5 µM [falling, partial curve, poor fit] |
